Source: patent US11098124B2 (INSTITUT NATIONAL DE LA SANTE ET DE LA RECHERCHE MEDICALE …, priority 2016, dated 2021)

Assay: Fmoc solid-phase peptide synthesis
Conditions: whole synthesis

With HYNIC-P8RI the isolated yield was 52% and the “final HPLC purity” value (RP-HPLC) was 96%.
